Test results taken from US20060258607.
For some assays here: No signal at the amounts used counts as a negative. For some assays here: For at least one entry, the source does not settle the construct or the ends of the probe. For some assays here: Weaker means in comparison with the reference protein, sequence or condition of that experiment. For some assays here: Where a protein sequence is shown, tags need not be part of it.

By UniProt entry, the sequences of proteins in these tests, tags left out. Where a name states a change or a piece, a line headed by the entry shows the natural chain unless it says otherwise.
UniProt Q9UBU3: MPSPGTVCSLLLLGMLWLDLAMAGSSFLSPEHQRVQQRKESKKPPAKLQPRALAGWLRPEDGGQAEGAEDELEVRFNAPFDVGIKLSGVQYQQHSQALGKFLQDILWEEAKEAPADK
UniProt Q9QYH7: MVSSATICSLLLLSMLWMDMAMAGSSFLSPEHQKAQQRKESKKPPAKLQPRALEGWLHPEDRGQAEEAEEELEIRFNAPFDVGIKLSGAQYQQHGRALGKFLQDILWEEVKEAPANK

How the values were obtained:
[1] = target: human ghrelin (L-peptide, octanoylated) (Homo sapiens) (UniProt Q9UBU3); experiment: activity in cells; conditions: L-RNA, synthetic protein, protein details: synthetic peptide, octanoyl-modified, Bachem, synthetic backbone, mirror-image nucleic acid; for functional effect of the aptamer: dose not given here; for IC50: 37 C
[2] = target: human des-octanoyl ghrelin (Homo sapiens) (UniProt Q9UBU3); experiment: competition with a labelled probe; conditions: L-RNA; internal hexaethylene glycol spacer [all L-RNA (1-44); hexaethylene glycol spacer left out between 30 and 31]; 100-fold excess des-octanoyl ghrelin does not compete; synthetic protein; protein details: synthetic peptide, not octanoylated; synthetic backbone; mirror-image nucleic acid; letters built from the parent sequence and the stated change; variant of MS-P2-F1 / SOT-E Spiegelmer
[3] = target: human ghrelin (L-peptide, octanoylated) (Homo sapiens) (UniProt Q9UBU3); experiment: ELONA; conditions: L-RNA; 5'-biotin; immobilised Spiegelmer captures octanoyl-ghrelin concentration-dependently, room temperature; synthetic protein; protein details: synthetic peptide, octanoyl-modified, Bachem; label: 5'-biotin; synthetic backbone; mirror-image nucleic acid; variant of SOT-C (NOX-B11) Spiegelmer
[4] = target: T1, rat ghrelin (Rattus norvegicus) (UniProt Q9QYH7); experiment: activity in cells; conditions: L-RNA; 5'-40 kDa PEG; internal hexaethylene glycol spacer [all L-RNA (1-44); 5'-40 kDa PEG at 1; hexaethylene glycol spacer left out between 30 and 31]; in vivo suppression of rat ghrelin-induced GH release in rats; maximal at 75 nmol/kg; synthetic protein; synthetic backbone; mirror-image nucleic acid; letters built from the parent sequence and the stated change; variant of SOT-E-19
T1 sequence: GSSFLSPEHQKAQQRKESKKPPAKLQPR

[5] = no loss of binding or inhibition, IC50 in figure, variant of SOT-E-19
[6] = three internal nucleotides replaced by hydrophilic spacer, spacer for three nucleotides, D-109 optimal position, variant of SOT-D-108
[7] = full activity retained, variant of SOT-D-000

## CGGUGAGGCAGAUAAGACCGAAGGUAACCAUUCCUACCG [SOT-D-101]
[1]; deletion of two nucleotides tolerated, variant of SOT-D-100
  functional effect of the aptamer: active

## GCGUAAGACCGAAGGUAACCAAUCCUACCGCGGUGAGGCAGCAC [SOT-E-19]
[2]
  binding result: no binding
[1]; internal hexaethylene glycol spacer [all L-RNA (1-44), hexaethylene glycol spacer left out between 30 and 31], calcium release, 2 nM ghrelin, letters built from the parent sequence and the stated change, variant of MS-P2-F1 / SOT-E Spiegelmer
  IC50: 4 nM

## GCGUAAGACCGAAGGUAACCAAUCCUACCGUAUCUACGGUGAGGCAGCAC [SOT-E-14]
[1]; full activity, variant of MS-P2-F1 / SOT-E Spiegelmer
  functional effect of the aptamer: active

## GCGUAAGACCGAAGGUAACCAAUCCUACCGACACGGUGAGGCAGCAC [SOT-E-19-L3]
[1]; [5]
  functional effect of the aptamer: active

## CCGGUGAGGCAGUAAGACCGAAGGUAACCAUUCCUACCGG [5'-PEG-SOT-D-109]
[1]; 5'-40 kDa PEG, internal hydrophilic spacer, same IC50 as unPEGylated D-109, room temperature, variant of SOT-D-109
  functional effect of the aptamer: active

## CCGGUGAGGCCGUAAGACCGAAGGUAACCAUUCCUACCGG [SOT-D-111]
[1]; [6]
  functional effect of the aptamer: active

## CGGUGAGGCAGCACGCGUAAGACCGAAGGUAACCAAUCCUACCG [SOT-E-21]
[1]; internal hydrophilic spacer [all L-RNA, internal hydrophilic spacer (N, left out) between 14 and 15], no loss of activity, letters built from the parent sequence and the stated change, variant of SOT-E-19
  functional effect of the aptamer: active

## CGGUGAGGCAAUAAGACCGAAGGUAACCAUUCCUACCG [SOT-D-102]
[1]; deletion of three nucleotides loses activity, variant of SOT-D-100
  functional effect of the aptamer: less active

## CGUGUGAGGCAAUAAAACUUAAGUCCGAAGGUAACCAAUCCUACACG [biotinylated NOX-B11]
[3]
  binding result: binds

## CGUGCGGUGAGGCAGACGUAAGACCGAAGGUAACCAUUCCUACCCACG [SOT-D-000]
[1]; parent of truncations, room temperature
  functional effect of the aptamer: active

## GGUGAGGCAGACGUAAGACCGAAGGUAACCAUUCCUACC [SOT-D-104]
[1]; significant loss of binding activity, variant of SOT-D-000
  functional effect of the aptamer: less active

## GGGUGAGCGUAAGACCGAAGGUAACCAAUCCUACCGUAUCUACGGUGAGGCAGCAC [MS-P2-F1 / SOT-E Spiegelmer]
[1]; GHS-R1a CHO calcium release
  IC50: 4 nM

## GGGUGAGCGUAAGACCGAAGGUAACCAAUCCUACCGCGGUGAGGCAGCAC [SOT-E-11]
[1]; hydrophilic (hexaethylene glycol) spacer replaces U37-A42 [all L-RNA (1-50), hexaethylene glycol spacer left out between 36 and 37 (replaces parent U37-A42)], no loss of activity, letters built from the parent sequence and the stated change, variant of MS-P2-F1 / SOT-E Spiegelmer
  functional effect of the aptamer: active

## GGGUGAGCGUAAGACCGAAGGUAACCAAUCCUACCGUAUCUACGGUGAGGCAGC [SOT-E-12]
[1]; 3' truncation reduces binding, variant of MS-P2-F1 / SOT-E Spiegelmer
  functional effect of the aptamer: less active

## GCGUAAGACCGAAGGUAACCAAUCCUACCGCGGUGAGGCAGCAC [SOT-E-19-5'-Amino]
[1]; 5'-aminohexyl, internal hexaethylene glycol spacer [all L-RNA (1-44), 5'-aminohexyl at 1, hexaethylene glycol spacer left out between 30 and 31], calcium release, 2 nM ghrelin, letters built from the parent sequence and the stated change, variant of SOT-E-19
  IC50: 4 nM

## CGUGUGAGGCAAUAAAACUUAAGUCCGAAGGUAACCAAUCCUACACG [SOT-C (NOX-B11) Spiegelmer]
[1]; calcium release
  IC50: 20 nM

## GCGUAAGACCGAAGGUAACCAAUCCUACCGCGGUGAGGCAGCAC [SOT-E-19-5'-PEG]
[1]; 5'-40 kDa PEG, internal hexaethylene glycol spacer [all L-RNA (1-44), 5'-40 kDa PEG at 1, hexaethylene glycol spacer left out between 30 and 31], calcium release, 2 nM ghrelin, letters built from the parent sequence and the stated change, variant of SOT-E-19
  IC50: 4 nM
[4]
  functional effect of the aptamer: active

## CCGGUGAGGCAGUAAGACCGAAGGUAACCAUUCCUACCGG [SOT-D-110]
[1]; [6]
  functional effect of the aptamer: active

## GGUAGGCAGACGUAAGACCGAAGGUAACCAUUCCUACC [SOT-D-106]
[1]; virtually inactive, variant of SOT-D-104
  functional effect of the aptamer: not active

## GCGUAAGACCGAAGGUAACCAAUCCUACCGCAACGGUGAGGCAGCAC [SOT-E-19-L4]
[1]; [5]
  functional effect of the aptamer: active

## CCGGUGAGGCAGACGUAAGACCGAAGGUAACCAUUCCUACCGG [SOT-D-108]
[1]; [7]
  functional effect of the aptamer: active

## CGGUGAGGCAGCGCGUAAGACCGAAGGUAACCAAUCCUACCG [SOT-E-25]
[1]; internal hydrophilic spacer [all L-RNA, internal hydrophilic spacer (N, left out) between 12 and 13], reduced antagonism, letters built from the parent sequence and the stated change, variant of SOT-E-21
  functional effect of the aptamer: less active

## GCGUAAGACCGAAGGUAACCAAUCCUACCGCGGUGAGGCAGC [SOT-E-33]
[1]; internal hydrophilic spacer [all L-RNA, internal hydrophilic spacer (N, left out) between 30 and 31], reduced antagonism, letters built from the parent sequence and the stated change, variant of SOT-E-19
  functional effect of the aptamer: less active

## CGGUGAGGCAGACGUAAGACCGAAGGUAACCAUUCCUACCG [SOT-D-100]
[1]; [7]
  functional effect of the aptamer: active
